# Laboratory results published in PubChem BioAssay (EPA / NIEHS).
# The chains behind the UniProt entries cited, without tags or fusion partners. Where a name states a change or a piece, a line headed by the entry shows the natural chain unless it says otherwise.
# UniProt P37231: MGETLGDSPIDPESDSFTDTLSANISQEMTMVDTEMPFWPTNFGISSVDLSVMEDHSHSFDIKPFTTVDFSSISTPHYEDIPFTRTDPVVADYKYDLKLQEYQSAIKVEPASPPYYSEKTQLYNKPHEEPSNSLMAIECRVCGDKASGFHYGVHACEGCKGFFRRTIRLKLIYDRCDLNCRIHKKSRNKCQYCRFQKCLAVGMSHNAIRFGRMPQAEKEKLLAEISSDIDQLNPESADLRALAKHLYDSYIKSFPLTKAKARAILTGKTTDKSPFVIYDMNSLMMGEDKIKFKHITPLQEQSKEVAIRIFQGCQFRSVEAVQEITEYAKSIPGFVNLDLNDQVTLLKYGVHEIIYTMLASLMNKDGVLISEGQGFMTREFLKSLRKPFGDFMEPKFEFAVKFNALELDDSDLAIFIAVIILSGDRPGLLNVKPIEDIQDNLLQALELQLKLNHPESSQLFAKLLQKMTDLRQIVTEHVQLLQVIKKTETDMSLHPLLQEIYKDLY
# UniProt P13631, whole entry, looked up: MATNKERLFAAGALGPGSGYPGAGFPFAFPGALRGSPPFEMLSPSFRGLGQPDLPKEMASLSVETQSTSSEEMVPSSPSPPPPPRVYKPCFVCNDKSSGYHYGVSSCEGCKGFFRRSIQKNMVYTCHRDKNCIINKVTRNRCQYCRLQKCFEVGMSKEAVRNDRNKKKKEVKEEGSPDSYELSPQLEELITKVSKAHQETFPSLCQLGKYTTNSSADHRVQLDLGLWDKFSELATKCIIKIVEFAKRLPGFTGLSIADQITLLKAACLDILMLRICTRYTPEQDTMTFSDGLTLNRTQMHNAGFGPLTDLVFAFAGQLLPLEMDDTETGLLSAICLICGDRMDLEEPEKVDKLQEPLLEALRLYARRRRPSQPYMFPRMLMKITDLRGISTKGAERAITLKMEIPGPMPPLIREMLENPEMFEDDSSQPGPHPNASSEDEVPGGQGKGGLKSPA
# UniProt Q92753: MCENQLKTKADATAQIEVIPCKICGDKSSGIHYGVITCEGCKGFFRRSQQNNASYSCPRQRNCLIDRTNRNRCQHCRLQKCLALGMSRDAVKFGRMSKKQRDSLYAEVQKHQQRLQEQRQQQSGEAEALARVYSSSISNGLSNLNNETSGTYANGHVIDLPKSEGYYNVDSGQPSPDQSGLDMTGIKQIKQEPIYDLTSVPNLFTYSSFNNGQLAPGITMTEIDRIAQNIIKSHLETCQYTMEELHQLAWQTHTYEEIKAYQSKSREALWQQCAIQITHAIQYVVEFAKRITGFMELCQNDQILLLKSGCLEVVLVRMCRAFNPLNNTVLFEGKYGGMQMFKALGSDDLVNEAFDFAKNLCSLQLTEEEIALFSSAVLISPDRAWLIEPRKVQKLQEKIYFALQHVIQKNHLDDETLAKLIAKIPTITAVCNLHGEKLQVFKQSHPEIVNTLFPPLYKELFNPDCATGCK
# UniProt P51449: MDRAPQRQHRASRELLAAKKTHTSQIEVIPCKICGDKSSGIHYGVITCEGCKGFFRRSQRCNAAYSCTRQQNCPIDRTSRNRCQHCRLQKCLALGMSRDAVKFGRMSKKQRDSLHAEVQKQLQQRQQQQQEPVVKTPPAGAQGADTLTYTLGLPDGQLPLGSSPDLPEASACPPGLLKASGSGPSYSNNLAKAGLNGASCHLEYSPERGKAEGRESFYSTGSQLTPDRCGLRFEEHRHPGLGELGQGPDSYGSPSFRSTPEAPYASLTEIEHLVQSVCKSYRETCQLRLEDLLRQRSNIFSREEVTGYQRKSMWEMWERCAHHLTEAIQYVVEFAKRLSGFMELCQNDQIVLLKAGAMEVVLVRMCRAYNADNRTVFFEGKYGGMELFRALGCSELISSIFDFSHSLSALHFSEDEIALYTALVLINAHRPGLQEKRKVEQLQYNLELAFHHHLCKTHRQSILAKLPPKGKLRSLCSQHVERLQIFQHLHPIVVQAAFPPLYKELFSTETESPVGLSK
# UniProt P28702: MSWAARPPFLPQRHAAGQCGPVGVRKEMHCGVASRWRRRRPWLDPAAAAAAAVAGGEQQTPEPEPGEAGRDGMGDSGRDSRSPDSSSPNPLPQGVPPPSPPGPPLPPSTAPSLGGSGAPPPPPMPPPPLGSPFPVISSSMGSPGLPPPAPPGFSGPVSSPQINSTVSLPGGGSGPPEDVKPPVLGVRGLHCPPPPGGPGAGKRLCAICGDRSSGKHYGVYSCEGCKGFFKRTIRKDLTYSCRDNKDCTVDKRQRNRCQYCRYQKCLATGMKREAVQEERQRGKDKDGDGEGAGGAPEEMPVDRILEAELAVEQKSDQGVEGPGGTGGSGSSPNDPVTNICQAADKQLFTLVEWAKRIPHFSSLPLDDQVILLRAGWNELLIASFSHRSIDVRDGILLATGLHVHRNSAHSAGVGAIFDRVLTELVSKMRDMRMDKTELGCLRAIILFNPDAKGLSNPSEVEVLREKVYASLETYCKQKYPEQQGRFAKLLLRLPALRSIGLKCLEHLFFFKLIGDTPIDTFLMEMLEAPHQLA
# UniProt P10827: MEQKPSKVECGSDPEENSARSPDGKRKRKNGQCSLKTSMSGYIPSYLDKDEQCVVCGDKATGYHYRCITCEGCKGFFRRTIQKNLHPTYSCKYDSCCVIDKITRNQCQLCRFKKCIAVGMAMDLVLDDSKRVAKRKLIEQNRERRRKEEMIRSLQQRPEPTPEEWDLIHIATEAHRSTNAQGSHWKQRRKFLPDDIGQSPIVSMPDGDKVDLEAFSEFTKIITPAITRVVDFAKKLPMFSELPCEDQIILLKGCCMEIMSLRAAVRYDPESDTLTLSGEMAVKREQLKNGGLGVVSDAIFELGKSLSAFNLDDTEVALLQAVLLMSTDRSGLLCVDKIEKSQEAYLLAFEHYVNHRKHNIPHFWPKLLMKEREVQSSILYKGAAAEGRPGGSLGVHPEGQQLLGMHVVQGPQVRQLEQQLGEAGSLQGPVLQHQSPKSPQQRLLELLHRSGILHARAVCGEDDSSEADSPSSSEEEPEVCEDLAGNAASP
# UniProt P19793: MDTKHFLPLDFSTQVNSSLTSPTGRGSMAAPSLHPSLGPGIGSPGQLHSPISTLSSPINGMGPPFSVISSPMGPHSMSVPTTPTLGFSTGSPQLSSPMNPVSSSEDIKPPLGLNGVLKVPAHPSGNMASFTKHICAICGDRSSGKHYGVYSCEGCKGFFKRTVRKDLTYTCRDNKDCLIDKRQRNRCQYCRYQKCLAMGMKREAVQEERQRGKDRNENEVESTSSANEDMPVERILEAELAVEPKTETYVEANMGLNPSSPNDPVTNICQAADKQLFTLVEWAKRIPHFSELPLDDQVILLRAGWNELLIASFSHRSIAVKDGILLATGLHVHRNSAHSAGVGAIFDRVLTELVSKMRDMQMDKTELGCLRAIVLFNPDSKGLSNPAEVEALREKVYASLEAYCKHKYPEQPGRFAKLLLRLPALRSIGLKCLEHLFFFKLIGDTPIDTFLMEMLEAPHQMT
# UniProt P11473: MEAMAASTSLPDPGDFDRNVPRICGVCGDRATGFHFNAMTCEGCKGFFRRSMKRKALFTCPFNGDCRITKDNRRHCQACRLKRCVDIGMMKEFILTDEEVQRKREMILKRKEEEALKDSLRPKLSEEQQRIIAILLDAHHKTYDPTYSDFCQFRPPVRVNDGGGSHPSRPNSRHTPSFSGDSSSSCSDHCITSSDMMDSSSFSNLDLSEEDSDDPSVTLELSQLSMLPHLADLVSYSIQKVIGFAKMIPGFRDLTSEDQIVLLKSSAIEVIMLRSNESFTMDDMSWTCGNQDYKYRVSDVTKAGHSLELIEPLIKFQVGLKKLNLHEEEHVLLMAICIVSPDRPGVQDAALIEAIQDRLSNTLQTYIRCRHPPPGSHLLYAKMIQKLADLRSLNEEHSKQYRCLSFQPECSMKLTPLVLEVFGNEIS
# The inconclusive results got no clear call from the source; some entries with a clear call stand among them for comparison. Potencies of inconclusive entries are doubtful fits and often do not repeat. Activity calls are given as the source filed them. Rule for the calls: active = hit-call score of the fitted dose curve at least 0.9, where 1 is the maximum; inconclusive = response in the unintended direction; inactive = score below 0.9.
# Tests used:
# [1] = molecular target: Peroxisome proliferator-activated receptor gamma (Homo sapiens) (UniProt P37231); test: ATG_PPARg_TRANS: Attagene TRANS-FACTORIAL HepG2 Assay for human Peroxisome Proliferator-activated Receptor-gamma (PPARg) (AID 2283007)
# Procedure, shortened: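 Gain-of-signal endpoint relative to DMSO, derived from reporter mRNA levels quantified by RT-PCR and capillary electrophoresis. Cells were HepG2 transiently expressing a chimeric NR-Gal4 construct with GAL4-UAS reporters, exposed to chemicals for 24 h.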
# [2] = molecular target: human Retinoic Acid Receptor gamma (RARg), RARG (gene 5916) (UniProt P13631); test: ATG_RARg_TRANS: Attagene TRANS-FACTORIAL HepG2 Assay for human Retinoic Acid Receptor gamma (RARg) (AID 2283009);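 for AC50: AC50 is for reporter induction above DMSO meaning RARg activation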
# Procedure, shortened: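 Gain-of-signal relative to DMSO is reported from fluorescent capillary electrophoresis of RT-PCR reporter products. These came from HepG2 cells expressing transfected RARg-GAL4 chimeras with UAS reporters, harvested 24 h after dosing.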
# [3] = molecular target: human RAR-related Orphan Receptor beta (RORb), RORB (gene 6096) (UniProt Q92753); test: ATG_RORb_TRANS: Attagene TRANS-FACTORIAL HepG2 Assay for human RAR-related Orphan Receptor beta (RORb) (AID 2283010);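 for AC50: potency for increased reporter mRNA meaning activation of RORb-Gal4 chimera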
# Procedure, shortened: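 Multiplexed transcription-factor reporter assay: HepG2 cells transiently carrying NR-Gal4/GAL4-UAS constructs, 24 h treatment, mRNA quantified by RT-PCR plus capillary electrophoresis fluorescence; activity scored as induction over DMSO.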
# [4] = molecular target: human RAR-related Orphan Receptor gamma (RORg), RORC (gene 6097) (UniProt P51449); test: ATG_RORg_TRANS: Attagene TRANS-FACTORIAL HepG2 Assay for human RAR-related Orphan Receptor gamma (RORg) (AID 2283011);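 for AC50: potency for induction of reporter transcripts above DMSO so activators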
# Procedure, shortened: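 Transient MRTU transfection of HepG2 (TRANS format, exogenous NR-Gal4 chimera). 24 h dosing. Total RNA → oligo(dT) RT → PCR → 6-FAM labelling → HpaI cut → CE. Gain vs DMSO.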
# [5] = molecular target: human Retinoid X Receptor beta (RXRb), RXRB (gene 6257) (UniProt P28702); test: ATG_RXRb_TRANS: Attagene TRANS-FACTORIAL HepG2 Assay for human Retinoid X Receptor beta (RXRb) (AID 2283013)
# Procedure, shortened: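 After a 24 h incubation with test chemical, transfected HepG2 cells carrying NR-Gal4 fusions and GAL4-UAS reporter transcription units yield RNA whose reporter cDNA is FAM-labelled, HpaI-cut and sized by capillary electrophoresis; increases over DMSO are scored.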
# [6] = molecular target: human Thyroid Receptor alpha (THRa1), THRA (gene 7067) (UniProt P10827); test: ATG_THRa1_TRANS: Attagene TRANS-FACTORIAL HepG2 Assay for human Thyroid Receptor alpha (THRa1) (AID 2283014)
# Procedure, shortened: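 Transient HepG2 transfection, NR-Gal4 chimera driving GAL4-UAS reporters; 24 h compound exposure; total RNA, oligo(dT) RT, PCR, fluorescent primer extension, capillary electrophoresis. Upward direction vs DMSO control.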
# [7] = molecular target: Retinoic acid receptor RXR-alpha (Homo sapiens) (UniProt P19793); test: ATG_RXRa_TRANS: Attagene TRANS-FACTORIAL HepG2 Assay for human Retinoid X Receptor alpha (RXRa) (AID 2283012)
# Procedure, shortened: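 Chimeric NR-GAL4 trans-activation in HepG2, 24 h treatment; reporter transcripts quantified by fluorescence on capillary electrophoresis, analysed for upward change from DMSO.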
# [8] = molecular target: human Vitamin D Receptor (VDR), VDR (gene 7421) (UniProt P11473); test: ATG_VDR_TRANS: Attagene TRANS-FACTORIAL HepG2 Assay for human Vitamin D Receptor (VDR) (AID 2283022)
# Procedure, shortened: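 RT-PCR/capillary electrophoresis read-out of reporter mRNA induction in transiently transfected HepG2; 24 h dosing; chimeric NR-Gal4 (TRANS format); gain-of-signal fit against DMSO baseline.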
smiles,measurement,setting,value
CC(C)(C)OC(=O)c1ccc(O)cc1,AC50,[1],active: 39.4 µM
same,AC50,[2],inconclusive: 100 µM
same,AC50,[3],inconclusive: 174 µM
same,AC50,[4],inconclusive: 100 µM
same,AC50,[5],inconclusive: 100 µM
same,AC50,[6],inconclusive: 100 µM
CC=CC=CCOC(=O)C(C)C,AC50,[1],active: 11.1 µM
same,AC50,[2],inconclusive: 100 µM
same,AC50,[3],inconclusive: 3.5 µM
same,outcome,[4],inactive
same,AC50,[7],inconclusive: 100 µM
same,AC50,[5],inconclusive: 100 µM
same,AC50,[8],inconclusive: 100 µM
Oc1ccc2c(c1)-c1ccccc1C2,outcome,[1],inactive
same,outcome,[2],inactive
same,AC50,[3],inconclusive: 178 µM
same,AC50,[4],inconclusive: 19.8 µM
same,AC50,[5],active: 26.2 µM
COC(=O)c1ccc(C)cc1C1=NC(C)(C(C)C)C(=O)N1 (configuration not stated) (tested in a mixture with another compound),AC50,[1],inconclusive: 2.88 µM
same,AC50,[2],inconclusive: 100 µM
same,AC50,[3],inconclusive: 100 µM
same,AC50,[4],inconclusive: 100 µM
same,AC50,[5],inconclusive: 100 µM
same,AC50,[6],inconclusive: 100 µM
CCOC(=O)c1nc(C(Cl)(Cl)Cl)n(-c2ccc(Cl)cc2Cl)n1,AC50,[1],active: 40.4 µM
same,AC50,[2],inconclusive: 33.1 µM
same,AC50,[3],inconclusive: 100 µM
same,AC50,[4],inconclusive: 100 µM
same,AC50,[5],inconclusive: 63.9 µM
same,AC50,[6],active: 2.11 µM
CCCCCCCCCC(=O)OCC,AC50,[1],active: 84.8 µM
same,outcome,[2],inactive
same,AC50,[3],inconclusive: 100 µM
same,outcome,[4],inactive
same,AC50,[5],active: 100 µM
same,AC50,[6],inconclusive: 100 µM
COC(=O)c1ccc(C(=O)OC)c(C(=O)OC)c1,AC50,[1],active: 34.5 µM
same,AC50,[2],inconclusive: 180 µM
same,outcome,[3],inactive
same,AC50,[4],inconclusive: 100 µM
same,AC50,[7],inconclusive: 5.39 µM
same,AC50,[6],inconclusive: 100 µM
Cc1ccc(S(=O)(=O)OCC(F)(F)C(F)(F)C(F)(F)C(F)(F)C(F)(F)C(F)F)cc1,outcome,[1],inactive
same,outcome,[2],inactive
same,outcome,[3],inactive
same,AC50,[4],inconclusive: 34 µM
same,AC50,[5],active: 7.9 µM
same,AC50,[6],inconclusive: 150 µM
FC(F)(F)C(F)(F)C(F)(F)C(F)(F)C(F)(F)C(F)(F)CC[Si](Cl)(Cl)Cl,outcome,[1],inactive
same,outcome,[2],inactive
same,AC50,[3],inconclusive: 50 µM
same,AC50,[4],inconclusive: 50 µM
same,outcome,[7],inactive
same,AC50,[6],inconclusive: 50 µM
same,outcome,[8],inactive
O=C(F)C(F)(F)C(F)(F)C(F)(F)C(F)F,outcome,[1],inactive
same,AC50,[2],inconclusive: 150 µM
same,AC50,[3],inconclusive: 150 µM
same,AC50,[4],inconclusive: 150 µM
same,outcome,[5],inactive
same,AC50,[6],inconclusive: 150 µM
same,AC50,[8],inconclusive: 150 µM
[Cl][Sc]([Cl])[Cl],AC50,[1],inconclusive: 100 µM
same,outcome,[2],inactive
same,AC50,[3],inconclusive: 100 µM
same,AC50,[7],inconclusive: 100 µM
same,AC50,[5],inconclusive: 100 µM
same,outcome,[6],inactive
CN1CCc2cccc3c2[C@H]1Cc1ccc(O)c(O)c1-3,AC50,[1],active: 12 µM
same,AC50,[2],active: 0.775 µM
same,AC50,[3],inconclusive: 10.8 µM
same,AC50,[4],inconclusive: 40 µM
same,outcome,[8],inactive

# In a second layout: results already given
smiles	measurement	setting	value
COC(=O)c1ccc(C(=O)OC)c(C(=O)OC)c1	AC50	[2]	inconclusive: 180 µM
O=C(F)C(F)(F)C(F)(F)C(F)(F)C(F)F	AC50	[3]	inconclusive: 150 µM
